Experimental data: US6423696B1, “Inhibition of arylamine N-acetyl transferase” (The United States of America, as represented by the …, priority 1999, dated 2002)

Biological target: T1, NAT-1 (Homo sapiens, UniProt P18440)
T1 sequence (P18440 1-290): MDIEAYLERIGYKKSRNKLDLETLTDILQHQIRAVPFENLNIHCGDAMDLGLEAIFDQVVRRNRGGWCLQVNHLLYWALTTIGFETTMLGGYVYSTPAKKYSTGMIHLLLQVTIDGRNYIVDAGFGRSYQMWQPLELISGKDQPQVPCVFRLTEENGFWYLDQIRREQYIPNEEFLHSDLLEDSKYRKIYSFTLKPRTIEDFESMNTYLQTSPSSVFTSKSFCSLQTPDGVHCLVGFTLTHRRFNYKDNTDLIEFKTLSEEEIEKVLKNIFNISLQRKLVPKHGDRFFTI
Conditions: human volunteer; SMX 500 mg every 12 hours, PAS 4 g every 8 hours on days 4 and 5; FIG. 4
Method: On the fourth and fifth days, PAS was also administered at its standard dose of 4 g every 8 hours.

Cc1cc(NS(=O)(=O)c2ccc(N)cc2)no1 [SMX, sulfamethoxazole]
plasma concentration of SMX, Day 5 (with PAS) vs Day 3 (baseline): higher plasma concentrations of SMX on Day 5 than on Day 3
